The record followed here is article PMC9016969.

By UniProt entry, the sequences of proteins in these tests, tags left out.
UniProt Q8NFU7: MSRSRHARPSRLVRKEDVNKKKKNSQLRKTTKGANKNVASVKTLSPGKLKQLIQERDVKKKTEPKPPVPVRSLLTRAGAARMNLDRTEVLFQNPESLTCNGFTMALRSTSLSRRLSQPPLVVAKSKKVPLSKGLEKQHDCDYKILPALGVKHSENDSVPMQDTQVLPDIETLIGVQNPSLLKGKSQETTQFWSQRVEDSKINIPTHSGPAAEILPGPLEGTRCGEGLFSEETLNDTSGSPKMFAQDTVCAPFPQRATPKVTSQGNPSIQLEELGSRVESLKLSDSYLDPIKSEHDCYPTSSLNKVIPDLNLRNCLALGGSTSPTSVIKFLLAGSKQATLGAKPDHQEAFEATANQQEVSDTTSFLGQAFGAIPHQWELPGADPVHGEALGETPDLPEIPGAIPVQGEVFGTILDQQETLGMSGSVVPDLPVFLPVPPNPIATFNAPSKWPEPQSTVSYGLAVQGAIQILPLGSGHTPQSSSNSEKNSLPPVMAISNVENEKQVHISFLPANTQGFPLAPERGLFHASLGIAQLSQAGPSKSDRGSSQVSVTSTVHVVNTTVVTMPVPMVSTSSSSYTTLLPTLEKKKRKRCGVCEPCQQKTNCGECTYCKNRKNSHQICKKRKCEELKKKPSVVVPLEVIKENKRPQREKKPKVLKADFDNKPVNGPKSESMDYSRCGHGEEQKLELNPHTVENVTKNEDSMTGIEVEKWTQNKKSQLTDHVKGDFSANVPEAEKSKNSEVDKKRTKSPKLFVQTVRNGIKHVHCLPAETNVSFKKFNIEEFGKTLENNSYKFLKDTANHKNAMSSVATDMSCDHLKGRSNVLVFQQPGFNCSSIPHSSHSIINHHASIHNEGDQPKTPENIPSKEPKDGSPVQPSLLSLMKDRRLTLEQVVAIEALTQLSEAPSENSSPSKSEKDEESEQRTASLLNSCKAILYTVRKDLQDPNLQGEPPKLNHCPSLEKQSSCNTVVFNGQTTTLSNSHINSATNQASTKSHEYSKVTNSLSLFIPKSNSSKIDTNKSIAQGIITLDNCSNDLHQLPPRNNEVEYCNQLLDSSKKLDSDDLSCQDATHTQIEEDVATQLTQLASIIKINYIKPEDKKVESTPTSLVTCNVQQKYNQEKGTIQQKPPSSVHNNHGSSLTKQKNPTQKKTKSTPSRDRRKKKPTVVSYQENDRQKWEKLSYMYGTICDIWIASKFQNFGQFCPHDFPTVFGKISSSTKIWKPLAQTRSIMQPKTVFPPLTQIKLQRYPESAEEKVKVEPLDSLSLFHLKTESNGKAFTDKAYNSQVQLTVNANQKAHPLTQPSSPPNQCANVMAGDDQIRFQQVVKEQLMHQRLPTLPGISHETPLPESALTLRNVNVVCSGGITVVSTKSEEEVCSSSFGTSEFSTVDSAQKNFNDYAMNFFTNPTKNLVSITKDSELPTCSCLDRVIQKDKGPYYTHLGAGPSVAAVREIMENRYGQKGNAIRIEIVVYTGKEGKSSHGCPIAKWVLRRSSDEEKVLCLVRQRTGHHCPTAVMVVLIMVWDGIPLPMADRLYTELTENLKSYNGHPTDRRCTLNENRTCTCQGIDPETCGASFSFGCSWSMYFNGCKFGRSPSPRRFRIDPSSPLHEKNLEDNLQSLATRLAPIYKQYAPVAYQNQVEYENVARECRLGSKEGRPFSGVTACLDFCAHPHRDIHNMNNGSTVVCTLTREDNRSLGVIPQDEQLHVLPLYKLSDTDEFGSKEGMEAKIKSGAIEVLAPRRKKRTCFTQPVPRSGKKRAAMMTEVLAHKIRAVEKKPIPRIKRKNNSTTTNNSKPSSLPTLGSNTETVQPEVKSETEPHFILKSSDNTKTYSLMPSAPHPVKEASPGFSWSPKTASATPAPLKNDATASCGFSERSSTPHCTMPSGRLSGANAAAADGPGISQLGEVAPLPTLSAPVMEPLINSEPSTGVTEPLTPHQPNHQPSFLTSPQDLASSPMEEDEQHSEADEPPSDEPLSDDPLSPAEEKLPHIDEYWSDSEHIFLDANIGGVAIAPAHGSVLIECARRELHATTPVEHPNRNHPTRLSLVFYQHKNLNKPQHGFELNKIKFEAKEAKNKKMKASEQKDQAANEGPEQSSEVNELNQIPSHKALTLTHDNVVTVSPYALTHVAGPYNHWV

Results are given in words; binding and its absence hold for the method and conditions named. Binding seen in cells or lysates may run through a third protein. Some results given as binding are weak or reduced against the parent protein; the word gives no strength. For some assays here: Where a sequence is shown, tags or fusion partners need not be part of it.

Assay [1] has as its target T1, FOXA1 (endogenous, MCF-7) (human (endogenous in MCF-7)) (UniProt P55317).
T1 sequence: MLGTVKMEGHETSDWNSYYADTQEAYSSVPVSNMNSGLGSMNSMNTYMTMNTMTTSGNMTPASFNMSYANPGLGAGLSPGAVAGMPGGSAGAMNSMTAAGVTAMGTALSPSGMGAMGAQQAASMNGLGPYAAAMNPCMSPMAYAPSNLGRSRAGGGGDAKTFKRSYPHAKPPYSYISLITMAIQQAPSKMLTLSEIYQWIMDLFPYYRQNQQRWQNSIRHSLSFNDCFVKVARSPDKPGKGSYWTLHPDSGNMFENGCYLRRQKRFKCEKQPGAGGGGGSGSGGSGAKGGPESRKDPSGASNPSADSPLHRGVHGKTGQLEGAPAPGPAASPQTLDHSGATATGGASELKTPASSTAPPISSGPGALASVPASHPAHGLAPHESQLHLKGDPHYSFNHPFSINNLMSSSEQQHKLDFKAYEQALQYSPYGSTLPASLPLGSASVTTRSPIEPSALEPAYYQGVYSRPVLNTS
The experiment in a line: co-IP; endogenous IP: rabbit anti-FOXA1 antibody on protein G Dynabeads with MCF-7 nuclear extract, 2 h at 4 °C; normal IgG as negative control; western blot.

The target of the next assay is GST-TET1 (human) (UniProt Q8NFU7). Description: pull-down; GST fusion proteins pre-bound to glutathione-Sepharose beads (50 mM Tris HCl pH 8.0, 150 mM NaCl, 5 mM EDTA, 1% Triton X-100, 1 mM DTT), incubated 1 h at 4 °C with whole cell lysate of transfected COS-1 cells; washed 3 x in KAc interaction buffer; immunoblot; only the target purified.

Regarding “TET2 (endogenous, MCF-7) (from UniProt Q6N021-1 1-2002)”, the binding result in assay [1] is listed as “binds”.

B1: FOXA1-V5 (protein, UniProt P55317-1 1-472)
chain: T1 sequence
As to B1, the binding entry in the assay with GST-TET1 (human) is “binds”.
